Results are given in words; binding and its absence hold for the method and conditions named. For some assays here: In cells and extracts the contact can be indirect. Some entries that bind do so weakly or less than the wild type.
Legend:
[1] = target: Cockayne syndrome complementation B protein (CSB) (human) (UniProt Q03468); assay: co-IP; unfixed lysate of CS1AN cells expressing CSB in Buffer B60 (20 mM HEPES pH 7.9, 60 mM NaCl, 0.5% Triton X-100), chromatin removed by centrifugation; supernatant precipitated with monoclonal anti-CSB antibody 1B1 and protein G agarose at 4°C, four washes; beads-only control in parallel; western blot for c-Jun
[2] = target: Cockayne syndrome complementation B protein (CSB) (human), Q03468; assay: ChIP-western; cells pre-extracted in Buffer B (150 mM NaCl, 0.5% Triton X-100) to remove soluble CSB and c-Jun, pellet fixed with 1% formaldehyde 10 min, sonicated; chromatin immunoprecipitated with monoclonal anti-CSB antibody 1B1, cross-links reversed, western blot for c-Jun; details: remark: other sources report otherwise

Amino acid sequences for entries named in this document (tags omitted).
UniProt Q03468: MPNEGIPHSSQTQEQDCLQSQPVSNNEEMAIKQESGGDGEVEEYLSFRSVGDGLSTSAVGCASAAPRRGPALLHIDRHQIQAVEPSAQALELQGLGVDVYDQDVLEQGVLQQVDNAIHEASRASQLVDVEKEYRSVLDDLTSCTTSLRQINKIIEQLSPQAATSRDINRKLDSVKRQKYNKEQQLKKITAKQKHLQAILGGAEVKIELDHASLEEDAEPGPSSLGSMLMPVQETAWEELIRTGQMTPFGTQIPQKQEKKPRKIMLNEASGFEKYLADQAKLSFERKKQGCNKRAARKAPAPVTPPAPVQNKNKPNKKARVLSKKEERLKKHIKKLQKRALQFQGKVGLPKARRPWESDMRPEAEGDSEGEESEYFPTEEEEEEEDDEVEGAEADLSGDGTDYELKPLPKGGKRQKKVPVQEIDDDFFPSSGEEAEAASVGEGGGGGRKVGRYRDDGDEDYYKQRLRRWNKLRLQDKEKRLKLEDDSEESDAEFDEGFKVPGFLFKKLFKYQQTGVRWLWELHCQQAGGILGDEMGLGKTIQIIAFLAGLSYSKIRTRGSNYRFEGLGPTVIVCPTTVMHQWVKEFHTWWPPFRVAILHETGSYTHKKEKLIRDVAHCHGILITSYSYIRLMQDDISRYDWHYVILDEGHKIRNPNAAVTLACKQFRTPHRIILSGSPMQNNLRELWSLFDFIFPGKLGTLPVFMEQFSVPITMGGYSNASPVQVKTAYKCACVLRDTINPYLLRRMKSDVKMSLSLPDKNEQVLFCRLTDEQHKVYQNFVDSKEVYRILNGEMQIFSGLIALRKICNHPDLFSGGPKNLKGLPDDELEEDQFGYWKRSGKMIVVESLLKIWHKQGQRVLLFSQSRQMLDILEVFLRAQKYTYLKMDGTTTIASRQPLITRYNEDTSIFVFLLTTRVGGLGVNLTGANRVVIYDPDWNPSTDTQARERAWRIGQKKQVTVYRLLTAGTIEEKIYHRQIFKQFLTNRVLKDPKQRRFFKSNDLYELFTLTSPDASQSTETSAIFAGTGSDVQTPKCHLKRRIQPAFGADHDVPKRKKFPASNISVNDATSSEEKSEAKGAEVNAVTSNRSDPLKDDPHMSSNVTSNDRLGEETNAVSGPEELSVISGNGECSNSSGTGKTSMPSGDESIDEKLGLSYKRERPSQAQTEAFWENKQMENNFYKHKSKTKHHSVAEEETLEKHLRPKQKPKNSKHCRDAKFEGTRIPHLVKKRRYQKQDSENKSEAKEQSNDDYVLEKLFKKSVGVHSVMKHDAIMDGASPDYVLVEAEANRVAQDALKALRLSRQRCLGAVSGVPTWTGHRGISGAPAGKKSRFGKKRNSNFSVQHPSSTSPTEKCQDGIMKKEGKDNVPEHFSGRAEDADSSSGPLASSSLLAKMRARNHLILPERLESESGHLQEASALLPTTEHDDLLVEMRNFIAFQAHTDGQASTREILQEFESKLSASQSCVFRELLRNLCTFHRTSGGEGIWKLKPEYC

Molecule	binding [1]	binding [2]
c-Jun (from UniProt P05412 1-331)	binds weakly	–
c-Jun, P05412 1-331 (protein) MTAKMETTFYDDALNASFLPSESGPYGYSNPKILKQSMTLNLADPVGSLKPHLRAKNSDLLTSPDVGLLKLASPELERLIIQSSNGHITTTPTPTQFLCPKNVTDEQEGFAEGFVRALAELHSQNTLPSVTSAAQPVNGAGMVAPAVASVAGGSGSGGFSASLHSEPPVYANLSNFNPGALSSGGGAPSYGAAGLAFPAQPQQQQQPPHHLPQQMPVQHPRLQALKEEPQTVPEMPGETPPLSPIDMESQERIKAERKRMRNRIAASKCRKRKLERIARLEEKVKTLKAQNSELASTANMLREQVAQLKQKVMNHVNSGCQLMLTQQLQTF	–	binds

From article PMC3990521
